This is an account of results in the supplement of paper PMC12067093, “Discovery and optimisation of a covalent ligand for TRIM25 and its application to targeted protein ubiquitination” (Chemical Science, 2025).

Protein sequences, listed by entry. Tags and fused reporters are not part of them. Lines headed by an entry give the natural chain unless they say otherwise; changes in a name come on top.
UniProt Q6PI47: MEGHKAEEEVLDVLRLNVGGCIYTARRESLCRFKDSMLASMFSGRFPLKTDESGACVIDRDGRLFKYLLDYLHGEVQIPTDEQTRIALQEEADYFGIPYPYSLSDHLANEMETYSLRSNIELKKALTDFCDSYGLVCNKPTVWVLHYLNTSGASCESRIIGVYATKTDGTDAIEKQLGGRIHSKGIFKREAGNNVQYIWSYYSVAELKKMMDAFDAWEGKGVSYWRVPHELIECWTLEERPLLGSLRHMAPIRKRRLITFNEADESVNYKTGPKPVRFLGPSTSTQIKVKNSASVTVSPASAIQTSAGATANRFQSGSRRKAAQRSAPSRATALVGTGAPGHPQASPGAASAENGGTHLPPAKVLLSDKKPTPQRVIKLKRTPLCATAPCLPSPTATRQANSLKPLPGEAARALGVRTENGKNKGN
UniProt O15037: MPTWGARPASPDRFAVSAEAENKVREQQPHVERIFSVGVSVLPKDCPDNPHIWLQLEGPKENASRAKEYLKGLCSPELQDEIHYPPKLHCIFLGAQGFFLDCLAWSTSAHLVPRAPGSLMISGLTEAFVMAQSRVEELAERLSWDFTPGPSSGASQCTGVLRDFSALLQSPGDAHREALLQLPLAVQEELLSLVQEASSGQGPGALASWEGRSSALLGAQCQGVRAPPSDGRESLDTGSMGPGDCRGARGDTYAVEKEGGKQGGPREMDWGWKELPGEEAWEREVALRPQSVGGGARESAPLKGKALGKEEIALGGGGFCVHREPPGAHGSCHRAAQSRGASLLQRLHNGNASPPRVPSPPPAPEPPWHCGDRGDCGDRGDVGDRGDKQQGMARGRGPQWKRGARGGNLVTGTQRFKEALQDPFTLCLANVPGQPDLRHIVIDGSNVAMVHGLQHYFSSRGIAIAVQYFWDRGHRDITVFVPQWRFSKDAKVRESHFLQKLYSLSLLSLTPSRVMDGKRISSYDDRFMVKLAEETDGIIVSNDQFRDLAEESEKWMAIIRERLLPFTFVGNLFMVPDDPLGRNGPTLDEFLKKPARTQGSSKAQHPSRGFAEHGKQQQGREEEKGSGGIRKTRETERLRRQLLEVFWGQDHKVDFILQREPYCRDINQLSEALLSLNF
UniProt Q6UW63: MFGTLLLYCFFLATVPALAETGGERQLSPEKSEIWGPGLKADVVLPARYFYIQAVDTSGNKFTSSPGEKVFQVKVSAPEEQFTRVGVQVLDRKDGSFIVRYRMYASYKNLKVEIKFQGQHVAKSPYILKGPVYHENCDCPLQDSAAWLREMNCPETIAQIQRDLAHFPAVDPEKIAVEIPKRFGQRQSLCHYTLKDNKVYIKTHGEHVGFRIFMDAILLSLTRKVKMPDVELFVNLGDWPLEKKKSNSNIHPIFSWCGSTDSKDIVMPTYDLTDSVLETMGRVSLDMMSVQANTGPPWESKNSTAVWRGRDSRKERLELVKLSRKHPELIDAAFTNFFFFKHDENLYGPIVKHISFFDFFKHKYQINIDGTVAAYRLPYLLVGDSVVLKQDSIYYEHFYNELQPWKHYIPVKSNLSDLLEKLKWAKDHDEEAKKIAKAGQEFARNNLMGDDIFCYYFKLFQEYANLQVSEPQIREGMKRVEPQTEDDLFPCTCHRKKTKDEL
UniProt Q14643, whole entry, looked up: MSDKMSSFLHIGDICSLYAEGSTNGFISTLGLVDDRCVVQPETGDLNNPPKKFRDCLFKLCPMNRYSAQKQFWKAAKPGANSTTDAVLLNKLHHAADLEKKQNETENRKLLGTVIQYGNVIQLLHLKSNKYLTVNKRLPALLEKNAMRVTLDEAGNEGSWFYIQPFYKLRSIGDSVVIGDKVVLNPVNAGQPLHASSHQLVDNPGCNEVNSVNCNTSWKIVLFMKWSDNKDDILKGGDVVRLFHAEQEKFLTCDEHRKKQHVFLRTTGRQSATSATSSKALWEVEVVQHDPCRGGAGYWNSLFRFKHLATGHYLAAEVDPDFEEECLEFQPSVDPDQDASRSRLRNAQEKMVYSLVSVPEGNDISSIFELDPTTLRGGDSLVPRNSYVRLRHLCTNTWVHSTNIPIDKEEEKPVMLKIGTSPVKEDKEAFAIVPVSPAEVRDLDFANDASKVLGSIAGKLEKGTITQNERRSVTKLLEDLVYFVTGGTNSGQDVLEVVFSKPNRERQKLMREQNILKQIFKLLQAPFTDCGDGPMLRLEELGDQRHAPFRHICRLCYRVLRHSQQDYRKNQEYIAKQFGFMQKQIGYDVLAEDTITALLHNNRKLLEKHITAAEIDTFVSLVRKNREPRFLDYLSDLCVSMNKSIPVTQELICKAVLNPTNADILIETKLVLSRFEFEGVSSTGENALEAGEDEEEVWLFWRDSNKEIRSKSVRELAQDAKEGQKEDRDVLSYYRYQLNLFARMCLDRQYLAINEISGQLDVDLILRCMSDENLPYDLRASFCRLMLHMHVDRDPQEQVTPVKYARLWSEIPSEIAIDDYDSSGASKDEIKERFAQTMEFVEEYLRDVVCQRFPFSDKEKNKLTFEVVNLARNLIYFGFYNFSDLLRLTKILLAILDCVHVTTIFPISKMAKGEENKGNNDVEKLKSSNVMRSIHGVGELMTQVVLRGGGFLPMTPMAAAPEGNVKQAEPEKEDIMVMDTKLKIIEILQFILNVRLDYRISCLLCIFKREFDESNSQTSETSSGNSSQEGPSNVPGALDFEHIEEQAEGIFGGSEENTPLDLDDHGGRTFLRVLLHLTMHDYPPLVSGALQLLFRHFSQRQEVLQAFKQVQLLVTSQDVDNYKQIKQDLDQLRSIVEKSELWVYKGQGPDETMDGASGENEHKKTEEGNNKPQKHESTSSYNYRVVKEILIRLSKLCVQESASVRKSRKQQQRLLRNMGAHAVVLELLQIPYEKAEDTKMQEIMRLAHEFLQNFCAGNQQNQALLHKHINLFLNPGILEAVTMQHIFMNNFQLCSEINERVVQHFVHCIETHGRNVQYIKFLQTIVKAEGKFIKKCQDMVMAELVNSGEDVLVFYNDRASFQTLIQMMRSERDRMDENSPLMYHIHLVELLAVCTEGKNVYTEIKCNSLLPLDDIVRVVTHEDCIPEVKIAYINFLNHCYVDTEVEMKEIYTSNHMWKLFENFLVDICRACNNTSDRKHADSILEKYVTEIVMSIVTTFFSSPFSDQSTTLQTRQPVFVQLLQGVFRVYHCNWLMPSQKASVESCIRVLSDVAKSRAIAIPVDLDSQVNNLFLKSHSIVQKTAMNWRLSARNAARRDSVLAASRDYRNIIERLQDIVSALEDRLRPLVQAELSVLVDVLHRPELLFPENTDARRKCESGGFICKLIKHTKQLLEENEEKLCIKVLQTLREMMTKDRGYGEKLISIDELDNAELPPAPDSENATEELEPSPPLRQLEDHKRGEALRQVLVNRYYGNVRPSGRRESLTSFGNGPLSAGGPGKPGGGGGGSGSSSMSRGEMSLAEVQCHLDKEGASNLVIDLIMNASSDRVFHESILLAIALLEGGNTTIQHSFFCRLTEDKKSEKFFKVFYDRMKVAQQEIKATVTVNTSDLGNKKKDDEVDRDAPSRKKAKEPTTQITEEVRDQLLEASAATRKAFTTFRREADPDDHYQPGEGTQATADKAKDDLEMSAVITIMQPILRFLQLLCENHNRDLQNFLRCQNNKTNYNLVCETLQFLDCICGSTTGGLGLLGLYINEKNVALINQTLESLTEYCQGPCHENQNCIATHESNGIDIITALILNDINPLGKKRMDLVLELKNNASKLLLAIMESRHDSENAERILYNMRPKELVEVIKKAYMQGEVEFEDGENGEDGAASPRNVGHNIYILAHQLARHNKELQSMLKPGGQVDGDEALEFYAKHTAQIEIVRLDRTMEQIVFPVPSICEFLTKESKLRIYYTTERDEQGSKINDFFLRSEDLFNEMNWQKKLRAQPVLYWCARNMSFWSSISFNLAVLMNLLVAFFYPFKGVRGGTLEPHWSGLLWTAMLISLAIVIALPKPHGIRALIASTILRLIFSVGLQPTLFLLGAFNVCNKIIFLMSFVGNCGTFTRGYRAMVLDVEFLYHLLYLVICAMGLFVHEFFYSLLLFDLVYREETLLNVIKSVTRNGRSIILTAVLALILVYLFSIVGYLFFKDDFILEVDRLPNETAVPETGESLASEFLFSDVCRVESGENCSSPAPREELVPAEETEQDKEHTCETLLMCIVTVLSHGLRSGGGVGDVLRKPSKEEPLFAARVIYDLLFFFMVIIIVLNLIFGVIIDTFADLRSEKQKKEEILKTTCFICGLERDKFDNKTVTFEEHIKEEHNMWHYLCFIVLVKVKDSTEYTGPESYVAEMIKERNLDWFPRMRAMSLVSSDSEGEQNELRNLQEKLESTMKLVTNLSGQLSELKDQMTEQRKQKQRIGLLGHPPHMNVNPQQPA
UniProt Q7LBC6: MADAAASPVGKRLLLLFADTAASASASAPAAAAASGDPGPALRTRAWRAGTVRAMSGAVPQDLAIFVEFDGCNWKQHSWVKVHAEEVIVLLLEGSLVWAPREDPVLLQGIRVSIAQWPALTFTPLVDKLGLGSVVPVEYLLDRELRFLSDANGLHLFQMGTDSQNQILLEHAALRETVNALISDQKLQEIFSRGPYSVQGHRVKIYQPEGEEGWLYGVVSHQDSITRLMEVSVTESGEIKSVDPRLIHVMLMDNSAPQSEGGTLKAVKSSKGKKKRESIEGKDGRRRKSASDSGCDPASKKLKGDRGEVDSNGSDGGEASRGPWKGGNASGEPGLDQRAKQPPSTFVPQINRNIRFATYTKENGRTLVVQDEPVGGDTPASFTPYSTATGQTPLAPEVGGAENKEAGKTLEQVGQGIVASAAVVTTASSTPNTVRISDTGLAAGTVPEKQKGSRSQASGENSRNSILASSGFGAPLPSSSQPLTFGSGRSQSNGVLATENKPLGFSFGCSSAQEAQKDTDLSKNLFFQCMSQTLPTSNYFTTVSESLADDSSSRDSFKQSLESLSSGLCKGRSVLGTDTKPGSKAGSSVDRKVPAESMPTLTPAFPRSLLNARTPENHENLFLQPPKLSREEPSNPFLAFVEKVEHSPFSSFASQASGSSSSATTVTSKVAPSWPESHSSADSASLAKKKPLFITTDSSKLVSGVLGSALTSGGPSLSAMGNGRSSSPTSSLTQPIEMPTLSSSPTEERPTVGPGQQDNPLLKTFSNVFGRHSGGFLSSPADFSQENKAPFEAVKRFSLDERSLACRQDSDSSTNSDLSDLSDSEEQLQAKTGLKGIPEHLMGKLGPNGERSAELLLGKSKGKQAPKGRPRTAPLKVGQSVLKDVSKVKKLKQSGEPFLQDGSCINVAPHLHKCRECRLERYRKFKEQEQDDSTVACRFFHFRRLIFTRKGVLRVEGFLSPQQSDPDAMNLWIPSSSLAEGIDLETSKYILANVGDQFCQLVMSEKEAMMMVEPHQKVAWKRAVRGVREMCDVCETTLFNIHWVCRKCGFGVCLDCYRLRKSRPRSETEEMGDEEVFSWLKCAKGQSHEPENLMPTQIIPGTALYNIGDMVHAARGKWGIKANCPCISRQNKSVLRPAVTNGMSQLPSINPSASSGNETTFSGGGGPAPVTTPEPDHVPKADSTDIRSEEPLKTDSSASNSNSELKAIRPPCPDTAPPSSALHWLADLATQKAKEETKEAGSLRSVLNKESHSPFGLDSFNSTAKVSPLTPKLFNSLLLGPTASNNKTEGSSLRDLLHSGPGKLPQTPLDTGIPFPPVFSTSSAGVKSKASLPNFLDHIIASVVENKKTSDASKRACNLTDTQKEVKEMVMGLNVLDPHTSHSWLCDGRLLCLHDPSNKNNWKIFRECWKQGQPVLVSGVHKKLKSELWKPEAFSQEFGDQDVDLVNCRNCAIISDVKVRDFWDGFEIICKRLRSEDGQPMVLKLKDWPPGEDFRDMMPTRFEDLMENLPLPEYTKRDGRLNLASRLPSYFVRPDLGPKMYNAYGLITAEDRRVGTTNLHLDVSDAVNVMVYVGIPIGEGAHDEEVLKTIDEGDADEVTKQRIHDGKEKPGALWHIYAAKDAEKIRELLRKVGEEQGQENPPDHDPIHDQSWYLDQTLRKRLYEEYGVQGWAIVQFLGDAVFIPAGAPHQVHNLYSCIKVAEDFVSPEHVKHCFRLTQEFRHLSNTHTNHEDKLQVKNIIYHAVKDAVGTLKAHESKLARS
UniProt P26440: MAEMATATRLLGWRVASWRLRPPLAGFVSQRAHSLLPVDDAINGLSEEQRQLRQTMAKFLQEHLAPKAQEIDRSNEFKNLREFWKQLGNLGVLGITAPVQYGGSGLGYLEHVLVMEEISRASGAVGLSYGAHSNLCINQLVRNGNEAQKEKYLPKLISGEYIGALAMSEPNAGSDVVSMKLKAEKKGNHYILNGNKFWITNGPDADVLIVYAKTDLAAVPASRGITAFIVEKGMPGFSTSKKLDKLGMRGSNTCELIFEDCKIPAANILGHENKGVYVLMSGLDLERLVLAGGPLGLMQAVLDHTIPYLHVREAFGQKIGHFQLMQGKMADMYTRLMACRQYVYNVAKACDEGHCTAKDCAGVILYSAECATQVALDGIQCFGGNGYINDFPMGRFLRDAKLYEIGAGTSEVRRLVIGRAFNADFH

This is one part of the list.
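Note: competitive chemoproteomic profiling in live THP-1 cells with an iodoacetamide desthiobiotin (IA-DTB) probe, comparing probe-labelled peptide intensities in compound-treated cells against DMSO-treated controls.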

Compound in this assay: CC1Cc2ccccc2N1C(=O)C1CCCN(C1)C(=O)CCl (mixture of isomers) [TRIM25 ligand 11 (diastereomer mixture)]
Put plainly: probe-labelled cysteine peptide fold change vs DMSO (competition) (log2 fold change); higher = less target engagement (more negative = stronger competition). As to conditions: 10 µM; THP-1; incubation time: 4 h.
With “KDM1A_O60341_618+623_CDAVLCTLPLGVLK (UniProt O60341)”, the “probe-labelled cysteine peptide fold change” value is -0.0168.

In the case of “KDM3A_Q9Y4C1_251_IVDPSLIHVEVVHDNLVTCGNSAR (UniProt Q9Y4C1)”, the “probe-labelled cysteine peptide fold change” value was -0.135.

For the target “KANK1_Q14678_1292_LLLAQPGCNGHLEDNDGSTALSIALEAGHK (UniProt Q14678)”, the “probe-labelled cysteine peptide fold change” value was 0.28.

In the case of “KAT6B_Q8WYB5_837_GCHLVGYFSK (UniProt Q8WYB5)”, the “probe-labelled cysteine peptide fold change” value was found to be 0.152.

On to “KCTD18_Q6PI47_56_TDESGACVIDR (UniProt Q6PI47)”, for which the “probe-labelled cysteine peptide fold change” value was 0.192.

Consider “KDM1A_O60341_600_YTASGCEVIAVNTR (UniProt O60341)”, for which the “probe-labelled cysteine peptide fold change” value came out at 0.0657.

With “KHNYN_O15037_245_ESLDTGSMGPGDCR (UniProt O15037)”, the “probe-labelled cysteine peptide fold change” value was -0.177.

Consider “KDELC1_Q6UW63_493_VEPQTEDDLFPCTCHR (UniProt Q6UW63)”, for which the “probe-labelled cysteine peptide fold change” value is 0.196.

Take “KDELC2_Q7Z4H8_141_GPVYHEYCECPEDPQAWQK (UniProt Q7Z4H8)”: the “probe-labelled cysteine peptide fold change” value was 0.00254.

Turning to “ITPR1_Q14643_1197_LCVQESASVR (UniProt Q14643)”, the “probe-labelled cysteine peptide fold change” value was determined as 0.125.

“ITPR3_Q14573_2455_ACDTLLMCIVTVMNHGLR (UniProt Q14573)”: the “probe-labelled cysteine peptide fold change” value was 0.0426.

Take “KIAA0100_Q14667_1055_LVGTEQSGQPCSR (UniProt Q14667)”: the “probe-labelled cysteine peptide fold change” value was 0.0196.

In the case of “KDM3B_Q7LBC6_937_EQEQDDSTVACR (UniProt Q7LBC6)”, the “probe-labelled cysteine peptide fold change” value came to 0.0635.

In the case of “KDM4A_O75164_533_DSISSDSETSEPLSCR (UniProt O75164)”, the “probe-labelled cysteine peptide fold change” value amounted to 0.143.

Take “IVD_P26440_254+261_GSNTCELIFEDCK (UniProt P26440)”: the “probe-labelled cysteine peptide fold change” value turned out to be 0.0605.

On to “IVD_P26440_355_ACDEGHCTAK (UniProt P26440)”, for which the “probe-labelled cysteine peptide fold change” value was -0.0206.
